For part of these data: Expression values are those of the mRNA of the gene that encodes the peptide; a gene is named only where it was looked up.
Legend:
Set-up in all cases: species or system human
[1] = tested on: source genes of selected peptides; assay: Target coverage of source genes in tumor entities based on TCGA Research Network data; conditions: over-expressed = more than 2-fold above the highest 75% percentile of normal organs; for Target coverage, over-expression category of source gene, LGG (N = 534): Lower grade glioma; for Target coverage, over-expression category of source gene, BLCA (N = 408): Bladder urothelial carcinoma; for Target coverage, over-expression category of source gene, CESC (N = 307): Cervical squamous cell carcinoma and endocervical adenocarcinoma; for Target coverage, over-expression category of source gene, HNSC (N = 521): Head and neck squamous cell carcinoma; for Target coverage, over-expression category of source gene, DLBC (N = 48): Lymphoid neoplasm diffuse large B-cell lymphoma; for Target coverage, over-expression category of source gene, MESO (N = 87): Mesothelioma
[2] = tested on: HLA-A*24 molecules of primary tumors; assay: Identification and relative LC-MS quantitation of HLA-A*24 tumor-associated peptides presented on tissue samples (XPRESIDENT presentation profiles); conditions: for Peptide Presentation on cancer entities: Table 9B: selected HLA-A*24 peptides, presentation on additional cancer entities
[3] = tested on: source genes of selected peptides; assay: Expression profiling of source genes by in-house RNAseq, tumor vs normal tissues (target coverage); conditions: share of tumors with more than 1.5-fold higher expression than highest relevant normal tissue, in-house RNASeq; for Target coverage, over-expression of source gene, AML: AML (N = 7); for Target coverage, over-expression of source gene, BRCA: BRCA (N = 10); for Target coverage, over-expression of source gene, CLL: CLL (N = 10); for Target coverage, over-expression of source gene, CRC: CRC (N = 20); for Target coverage, over-expression of source gene, GB: GB (N = 24); for Target coverage, over-expression of source gene, HCC: HCC (N = 15); for Target coverage, over-expression of source gene, OC: OC (N = 12); for Target coverage, over-expression of source gene, OSCAR: OSCAR (N = 11); for Target coverage, over-expression of source gene, PC: PC (N = 26); for Target coverage, over-expression of source gene, RCC: RCC (N = 10); for Target coverage, over-expression of source gene, SCLC: SCLC (N = 10); for Target coverage, over-expression of source gene, pNSCLC: pNSCLC (N = 11)

Substance | Target coverage, over-expression category of source gene, LGG (N = 534) [1] | Peptide Presentation on cancer entities [2] | Target coverage, over-expression of source gene, AML [3] | Target coverage, over-expression of source gene, BRCA [3] | Target coverage, over-expression of source gene, CLL [3] | Target coverage, over-expression of source gene, CRC [3] | Target coverage, over-expression of source gene, GB [3] | Target coverage, over-expression of source gene, HCC [3] | Target coverage, over-expression of source gene, OC [3] | Target coverage, over-expression of source gene, OSCAR [3] | Target coverage, over-expression of source gene, PC [3] | Target coverage, over-expression of source gene, RCC [3] | Target coverage, over-expression of source gene, SCLC [3] | Target coverage, over-expression of source gene, pNSCLC [3] | Target coverage, over-expression category of source gene, BLCA (N = 408) [1] | Target coverage, over-expression category of source gene, CESC (N = 307) [1] | Target coverage, over-expression category of source gene, HNSC (N = 521) [1] | Target coverage, over-expression category of source gene, DLBC (N = 48) [1] | Target coverage, over-expression category of source gene, MESO (N = 87) [1] | further results
198: peptide found in ABCA1 (gene looked up) (DYVGFTLKI; listed as Homo sapiens) [compound 198] | C (>=5% of tumors above the cutoff, but <20%) | NSCLC | I (<19% over-expression = I) | I (<19% over-expression = I) | I (<19% over-expression = I) | I (<19% over-expression = I) | III (50-69% = III) | I (<19% over-expression = I) | I (<19% over-expression = I) | I (<19% over-expression = I) | I (<19% over-expression = I) | I (<19% over-expression = I) | I (<19% over-expression = I) | II (20-49% = II) |  |  |  |  |  | 
210: peptide found in BUB1B (gene looked up) (IYAGVGEFSF; listed as Homo sapiens) [compound 210] | C (>=5% of tumors above the cutoff, but <20%) |  | I (<19% over-expression = I) | I (<19% over-expression = I) | I (<19% over-expression = I) | I (<19% over-expression = I) | I (<19% over-expression = I) | I (<19% over-expression = I) | I (<19% over-expression = I) | I (<19% over-expression = I) | I (<19% over-expression = I) | I (<19% over-expression = I) | II (20-49% = II) | I (<19% over-expression = I) | B (>=20% of tumors above the cutoff, but <50%) | A (>=50% of tumors above the cutoff) | B (>=20% of tumors above the cutoff, but <50%) | B (>=20% of tumors above the cutoff, but <50%) | C (>=5% of tumors above the cutoff, but <20%) | ENTITIES ([2]; Table 9A: selected HLA-A*24-binding tumor-associated peptides, cancer entities on which the peptide was found presented): NSCLC, GC
214: peptide found in CCNB2 (gene looked up) (KYLMELTLI; listed as Homo sapiens) [compound 214] |  | NSCLC | I (<19% over-expression = I) | I (<19% over-expression = I) | I (<19% over-expression = I) | I (<19% over-expression = I) | I (<19% over-expression = I) | I (<19% over-expression = I) | I (<19% over-expression = I) | I (<19% over-expression = I) | I (<19% over-expression = I) | I (<19% over-expression = I) | II (20-49% = II) | I (<19% over-expression = I) | B (>=20% of tumors above the cutoff, but <50%) | A (>=50% of tumors above the cutoff) | B (>=20% of tumors above the cutoff, but <50%) | B (>=20% of tumors above the cutoff, but <50%) | C (>=5% of tumors above the cutoff, but <20%) | 
218: peptide found in CYP24A1 (gene looked up) (LYSELNKWSF; listed as Homo sapiens) [compound 218] |  | NSCLC | I (<19% over-expression = I) | I (<19% over-expression = I) | I (<19% over-expression = I) | I (<19% over-expression = I) | I (<19% over-expression = I) | I (<19% over-expression = I) | I (<19% over-expression = I) | I (<19% over-expression = I) | I (<19% over-expression = I) | I (<19% over-expression = I) | I (<19% over-expression = I) | II (20-49% = II) | C (>=5% of tumors above the cutoff, but <20%) |  |  |  |  | Target coverage, over-expression category of source gene, KIRP (N = 291) ([1]; Kidney renal papillary cell carcinoma): C (>=5% of tumors above the cutoff, but <20%)
219: peptide found in CYP4Z1 (gene looked up) (SYLKAVFNL; listed as Homo sapiens) [compound 219] |  | NSCLC | I (<19% over-expression = I) | III (50-69% = III) | I (<19% over-expression = I) | I (<19% over-expression = I) | I (<19% over-expression = I) | I (<19% over-expression = I) | I (<19% over-expression = I) | I (<19% over-expression = I) | I (<19% over-expression = I) | I (<19% over-expression = I) | I (<19% over-expression = I) | I (<19% over-expression = I) | C (>=5% of tumors above the cutoff, but <20%) | C (>=5% of tumors above the cutoff, but <20%) |  |  |  | 

— US10159726B2, “Peptides, combination of peptides and scaffolds for use in immunotherapeutic treatment of various cancers” (Immatics Biotechnologies GmbH, priority 2015, dated 2018)
